Measurements taken from publication PMC8748537.
No constants are given. Whether binding was seen depends on the method and setting. Binding seen in cells or lysates may run through a third protein. Some entries that bind do so weakly or less than the wild type. For part of these data: Sequences can lack the tags named with a protein. Blank lines part the entries; values can stand above or below the molecule they belong to.

Sequences of proteins named here, by UniProt entry; tags and fusion partners are left off.
UniProt Q86WV6: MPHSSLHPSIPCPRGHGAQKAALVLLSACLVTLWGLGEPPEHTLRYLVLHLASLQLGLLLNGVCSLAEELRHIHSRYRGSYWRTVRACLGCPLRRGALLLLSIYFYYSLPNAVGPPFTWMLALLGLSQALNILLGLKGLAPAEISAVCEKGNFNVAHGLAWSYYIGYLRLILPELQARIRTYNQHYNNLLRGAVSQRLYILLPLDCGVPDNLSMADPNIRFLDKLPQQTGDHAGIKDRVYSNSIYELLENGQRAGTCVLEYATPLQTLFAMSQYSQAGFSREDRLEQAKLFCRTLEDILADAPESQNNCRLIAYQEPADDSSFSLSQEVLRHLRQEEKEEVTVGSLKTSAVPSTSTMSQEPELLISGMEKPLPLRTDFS

How the values were obtained:
ERGIC53 = target: T1, ERGIC53 (UniProt P49257); assay: co-IP; Supplementary Fig. 11: interaction of STING and ERGIC53, weakened by TMEM120A knock-down; method, cells and constructs not shown
T1 sequence: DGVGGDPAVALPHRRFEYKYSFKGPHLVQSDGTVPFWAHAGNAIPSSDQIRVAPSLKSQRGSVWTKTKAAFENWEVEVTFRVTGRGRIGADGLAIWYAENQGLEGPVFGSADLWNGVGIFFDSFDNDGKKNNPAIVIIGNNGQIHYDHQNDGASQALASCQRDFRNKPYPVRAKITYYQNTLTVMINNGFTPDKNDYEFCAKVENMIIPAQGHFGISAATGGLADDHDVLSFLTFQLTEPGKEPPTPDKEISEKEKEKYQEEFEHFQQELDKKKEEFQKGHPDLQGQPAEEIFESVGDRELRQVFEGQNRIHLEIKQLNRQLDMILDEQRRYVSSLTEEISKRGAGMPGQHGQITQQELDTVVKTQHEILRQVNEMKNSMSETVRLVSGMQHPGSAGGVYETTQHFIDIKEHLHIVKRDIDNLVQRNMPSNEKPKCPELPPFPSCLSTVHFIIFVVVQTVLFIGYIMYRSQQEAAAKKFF

[1] = target: T2, HA-FLAG-tagged TMEM120A (human) (UniProt Q9BXJ8); assay: co-IP; FLAG-tag based immunoprecipitation (anti-FLAG M2 magnetic beads, overnight 4 °C, FLAG peptide elution) from U87MG cells stably expressing HA-FLAG-TMEM120A, infected with ZIKV for 48 h; blot with STING antibody; lysis buffer 20 mM Tris-HCl pH 7.5, 150 mM NaCl, 2 mM EDTA, 1% Nonidet P-40
T2 sequence: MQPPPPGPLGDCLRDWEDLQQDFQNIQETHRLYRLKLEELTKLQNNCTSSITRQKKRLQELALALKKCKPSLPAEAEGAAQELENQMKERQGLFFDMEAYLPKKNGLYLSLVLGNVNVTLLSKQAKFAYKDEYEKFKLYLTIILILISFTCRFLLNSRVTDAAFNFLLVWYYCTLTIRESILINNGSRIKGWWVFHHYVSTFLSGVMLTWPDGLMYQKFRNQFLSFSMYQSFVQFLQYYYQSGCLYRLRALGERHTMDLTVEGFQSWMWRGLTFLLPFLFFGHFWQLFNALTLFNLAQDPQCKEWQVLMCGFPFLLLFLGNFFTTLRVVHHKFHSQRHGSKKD

[2] = target: N-terminal HA-FLAG tagged STING (UniProt Q86WV6); assay: co-IP; FLAG-tag based immunoprecipitation (anti-FLAG M2 magnetic beads, overnight 4 °C, FLAG peptide elution) from HEK293T cells transiently transfected for 48 h with HA-FLAG-STING and TMEM120A-V5; blot with TMEM120A antibodies; lysis buffer 20 mM Tris-HCl pH 7.5, 150 mM NaCl, 2 mM EDTA, 1% Nonidet P-40
[3] = target: STING (as in the experiments of Supplementary Figs. 7, 8, 11 and 12; construct not shown) (UniProt Q86WV6); assay: co-IP; Supplementary Fig. 7: with ZIKV or HSV-1 infection (interaction enhanced); cells and constructs not shown
[4] = target: STING (as in the experiments of Supplementary Figs. 7, 8, 11 and 12; construct not shown) (UniProt Q86WV6); assay: co-IP; Supplementary Fig. 12b, c: association of TMEM120A with STING with SEC23A knock-down, and of TMEM120A with COPII components; cells and constructs not shown
[5] = target: STING (as in the experiments of Supplementary Figs. 7, 8, 11 and 12; construct not shown) (UniProt Q86WV6); assay: co-IP; Supplementary Fig. 8: IP of TMEM120A truncations NTD and CTD with STING; cells, tags and bait not shown

binding [1]: binds
Molecule: endogenous STING (from UniProt Q86WV6 1-379)

binding [5]: binds
B3: TMEM120A CTD (C-terminal domain, aa 136-343) (domain or fragment, UniProt Q9BXJ8 136-343)
chain: FKLYLTIILILISFTCRFLLNSRVTDAAFNFLLVWYYCTLTIRESILINNGSRIKGWWVFHHYVSTFLSGVMLTWPDGLMYQKFRNQFLSFSMYQSFVQFLQYYYQSGCLYRLRALGERHTMDLTVEGFQSWMWRGLTFLLPFLFFGHFWQLFNALTLFNLAQDPQCKEWQVLMCGFPFLLLFLGNFFTTLRVVHHKFHSQRHGSKKD

The remaining lines, values behind:

Molecule: STING (as in the experiments of Supplementary Figs. 7, 8, 11 and 12; construct not shown) (from UniProt Q86WV6 1-379)
binding (ERGIC53): binds

B1: C-terminal V5-TMEM120A (protein, UniProt Q9BXJ8 1-343)
chain: MQPPPPGPLGDCLRDWEDLQQDFQNIQETHRLYRLKLEELTKLQNNCTSSITRQKKRLQELALALKKCKPSLPAEAEGAAQELENQMKERQGLFFDMEAYLPKKNGLYLSLVLGNVNVTLLSKQAKFAYKDEYEKFKLYLTIILILISFTCRFLLNSRVTDAAFNFLLVWYYCTLTIRESILINNGSRIKGWWVFHHYVSTFLSGVMLTWPDGLMYQKFRNQFLSFSMYQSFVQFLQYYYQSGCLYRLRALGERHTMDLTVEGFQSWMWRGLTFLLPFLFFGHFWQLFNALTLFNLAQDPQCKEWQVLMCGFPFLLLFLGNFFTTLRVVHHKFHSQRHGSKKD
binding [2]: binds

B2: TMEM120A (as in the experiments of Supplementary Figs. 7 and 12; construct not shown) (protein, UniProt Q9BXJ8 1-343)
chain: MQPPPPGPLGDCLRDWEDLQQDFQNIQETHRLYRLKLEELTKLQNNCTSSITRQKKRLQELALALKKCKPSLPAEAEGAAQELENQMKERQGLFFDMEAYLPKKNGLYLSLVLGNVNVTLLSKQAKFAYKDEYEKFKLYLTIILILISFTCRFLLNSRVTDAAFNFLLVWYYCTLTIRESILINNGSRIKGWWVFHHYVSTFLSGVMLTWPDGLMYQKFRNQFLSFSMYQSFVQFLQYYYQSGCLYRLRALGERHTMDLTVEGFQSWMWRGLTFLLPFLFFGHFWQLFNALTLFNLAQDPQCKEWQVLMCGFPFLLLFLGNFFTTLRVVHHKFHSQRHGSKKD
binding [3]: binds | binding [4]: binds
